Results from patent publication US20160251404A1 (Molecular Partners, published 2016).
These are yes or no findings as the source states them, for the method shown. Some results given as binding are weak or reduced against the parent protein; the word gives no strength.

Amino acid sequences for entries named in this document (tags omitted). Residues count along the entry.
UniProt P14210, residues 32-728: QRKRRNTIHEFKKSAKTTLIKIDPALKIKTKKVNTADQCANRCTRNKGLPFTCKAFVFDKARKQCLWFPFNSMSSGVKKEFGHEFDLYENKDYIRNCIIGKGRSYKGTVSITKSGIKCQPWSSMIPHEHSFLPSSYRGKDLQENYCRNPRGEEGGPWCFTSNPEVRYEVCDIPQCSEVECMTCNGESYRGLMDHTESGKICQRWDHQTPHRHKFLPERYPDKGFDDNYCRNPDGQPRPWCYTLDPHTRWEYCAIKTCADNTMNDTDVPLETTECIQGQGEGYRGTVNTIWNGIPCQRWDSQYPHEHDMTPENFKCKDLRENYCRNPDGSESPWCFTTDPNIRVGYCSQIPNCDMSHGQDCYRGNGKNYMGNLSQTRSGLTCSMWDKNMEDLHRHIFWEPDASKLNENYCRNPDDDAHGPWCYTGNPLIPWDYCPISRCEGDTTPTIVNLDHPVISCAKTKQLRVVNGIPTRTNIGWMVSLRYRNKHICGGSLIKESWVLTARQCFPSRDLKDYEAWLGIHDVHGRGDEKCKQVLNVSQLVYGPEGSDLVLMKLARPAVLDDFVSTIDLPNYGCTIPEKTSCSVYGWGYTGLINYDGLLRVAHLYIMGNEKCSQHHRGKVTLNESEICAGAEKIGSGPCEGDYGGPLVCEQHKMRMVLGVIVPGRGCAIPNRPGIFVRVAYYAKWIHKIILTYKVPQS

Columns and labels:
[1] = target: recombinant human HGF (hepatocyte growth factor) (human) (UniProt P14210); assay: SPR (ProteOn), human HGF immobilized on the chip, DARPin injected for 120 s, then buffer flow
[2] = target: recombinant human HGF (hepatocyte growth factor) (human) (UniProt P14210); assay: crude E. coli extract receptor competition ELISA (biotinylated HGF, c-Met-Fc on plate)
[3] = target: recombinant human HGF (hepatocyte growth factor) (human) (UniProt P14210); assay: SPR, human HGF immobilized, 100 nM DARPin #51 injected for 120 s as the first DARPin
[4] = target: recombinant human HGF (hepatocyte growth factor) (human) (UniProt P14210); assay: competition SPR, human HGF immobilized, 100 nM DARPin
[5] = target: recombinant human HGF (hepatocyte growth factor) (human) (UniProt P14210); assay: receptor competition ELISA: DARPin premixed with human HGF, binding of HGF to coated c-Met (Fc chimera) detected; the blocked partner is c-Met
[6] = target: recombinant human HGF (hepatocyte growth factor) (human) (UniProt P14210); assay: competition SPR, human HGF immobilized, 100 nM DARPin injected after DARPin #51
[7] = target: recombinant human HGF (hepatocyte growth factor) (human) (UniProt P14210); assay: SPR, human HGF immobilized and first loaded with 100 nM DARPin #51 for 120 s, then 100 nM DARPin #57 injected for 60 s

Measured: binding

B1: DARPin #51 (designed binder)
chain: MRGSHHHHHHGSDLGKKLLEAARAGQDDEVRILLKAGADVNAKDRYGDTPLHLAADIGHLEIVEVLLKAGADVNAEDYFGNTPLHLAASYGHLEIVEVLLKAGADVNAKDDYGNTPLHLAANTGHLEIVEVLLKAGADVNAQDKSGKTPADLAADAGHEDIAEVLQKLN
not listed: [6] | [7]
binds: all other assays above

B2: DARPin #57 (designed binder)
chain: MRGSHHHHHHGSDLGKKLLEAARAGQDDEVRILMANGADVNAHDYLGLTPLHLAASDGHLEIVEVLLKHGADVNAYDYNGLTPLHLAANNGHLEIVEVLLKYGADVNAFDVAGYTPLHLAAYFGHLEIVEVLLKYGADVNAQDKFGKTAFDISIDNGNEDLAEILQKLN
binds: [2] | [6] | [7]
